For at least one compound, name, drawing or mass did not settle the structure.
Experiment: Determination by UV-Vis of the amount of dexamethasone released from the nanowire array
Type: physicochemical
Conditions: FIG. 11

**Q.** Which “amount of dexamethasone released by electrical stimulation (active release) compared with passive release” value (PPy/DEX nanowire array in PBS, cyclic voltammetry -0.8 V to +0.9 V, 100 mV/s, passive release after 5, 10, 20 and 30 minutes, 1 cycle = 1 minute) does the source give for `C[C@@H]1C[C@H]2[C@@H]3CCC4=CC(=O)C=C[C@]4(C)[C@@]3(F)[C@@H](O)C[C@]2(C)[C@@]1(O)C(=O)CO` [dexamethasone] here?
**A.** well above the amount released passively

**Q.** What about the “kinetic order of active release of dexamethasone” value (release via electrical stimulation, cyclic voltammetry 100 mV/s, PBS) of the same molecule?
**A.** kinetic order of one

Reference: patent publication US20100233226A1, “DRUG-ELUTING NANOWIRE ARRAY” (Université Catholique de Louvain, priority 2007, published 2010)
